Reference: the supplement of paper PMC10849652
This is one part of the list.

Sequences of proteins named here, by UniProt entry; tags and fusion partners are left off. A change or cut given only in a name is not applied to a line headed by its entry.
UniProt Q9H479: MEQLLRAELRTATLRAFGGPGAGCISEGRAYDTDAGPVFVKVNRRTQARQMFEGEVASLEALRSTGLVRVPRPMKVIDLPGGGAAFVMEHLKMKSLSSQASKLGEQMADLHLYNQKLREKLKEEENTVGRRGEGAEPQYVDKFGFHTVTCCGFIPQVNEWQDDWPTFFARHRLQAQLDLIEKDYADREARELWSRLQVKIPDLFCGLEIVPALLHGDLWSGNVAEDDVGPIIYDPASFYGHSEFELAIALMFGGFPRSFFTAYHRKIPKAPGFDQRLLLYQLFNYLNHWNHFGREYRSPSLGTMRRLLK
UniProt P10109: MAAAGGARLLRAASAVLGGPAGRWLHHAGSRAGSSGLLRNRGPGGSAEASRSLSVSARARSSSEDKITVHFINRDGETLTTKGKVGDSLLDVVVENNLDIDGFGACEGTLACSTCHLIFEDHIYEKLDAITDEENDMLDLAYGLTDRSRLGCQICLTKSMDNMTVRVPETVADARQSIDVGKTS
UniProt Q9Y680: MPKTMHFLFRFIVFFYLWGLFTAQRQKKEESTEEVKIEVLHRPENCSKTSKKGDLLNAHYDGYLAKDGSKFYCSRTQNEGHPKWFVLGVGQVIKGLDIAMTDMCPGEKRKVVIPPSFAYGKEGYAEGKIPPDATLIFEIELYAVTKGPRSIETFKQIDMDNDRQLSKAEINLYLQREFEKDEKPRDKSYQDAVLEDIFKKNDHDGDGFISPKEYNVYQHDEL
UniProt Q13643: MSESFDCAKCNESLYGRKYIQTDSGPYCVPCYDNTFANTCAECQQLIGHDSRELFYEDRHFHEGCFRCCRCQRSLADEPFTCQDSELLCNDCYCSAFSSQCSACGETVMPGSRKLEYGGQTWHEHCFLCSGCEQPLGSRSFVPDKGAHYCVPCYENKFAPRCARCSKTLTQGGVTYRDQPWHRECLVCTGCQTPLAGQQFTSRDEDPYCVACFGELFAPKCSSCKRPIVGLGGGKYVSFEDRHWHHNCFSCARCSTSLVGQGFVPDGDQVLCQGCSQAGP
UniProt Q6P4F2: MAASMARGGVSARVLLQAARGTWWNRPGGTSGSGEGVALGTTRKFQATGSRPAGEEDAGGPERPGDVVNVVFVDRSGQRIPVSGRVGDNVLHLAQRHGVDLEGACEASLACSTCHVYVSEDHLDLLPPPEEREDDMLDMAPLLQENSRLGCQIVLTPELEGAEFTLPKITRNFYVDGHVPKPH
UniProt Q9UKT4: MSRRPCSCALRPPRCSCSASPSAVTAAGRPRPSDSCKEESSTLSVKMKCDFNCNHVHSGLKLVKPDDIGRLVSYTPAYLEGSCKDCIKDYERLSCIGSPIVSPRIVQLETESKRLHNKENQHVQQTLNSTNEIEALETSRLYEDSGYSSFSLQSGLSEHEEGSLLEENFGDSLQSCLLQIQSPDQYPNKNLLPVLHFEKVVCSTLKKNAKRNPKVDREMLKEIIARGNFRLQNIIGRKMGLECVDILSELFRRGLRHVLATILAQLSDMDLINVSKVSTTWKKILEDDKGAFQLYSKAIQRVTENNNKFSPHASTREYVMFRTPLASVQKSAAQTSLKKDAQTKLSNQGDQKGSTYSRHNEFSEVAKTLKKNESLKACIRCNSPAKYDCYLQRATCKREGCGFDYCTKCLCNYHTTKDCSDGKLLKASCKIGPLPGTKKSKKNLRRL
UniProt O75955: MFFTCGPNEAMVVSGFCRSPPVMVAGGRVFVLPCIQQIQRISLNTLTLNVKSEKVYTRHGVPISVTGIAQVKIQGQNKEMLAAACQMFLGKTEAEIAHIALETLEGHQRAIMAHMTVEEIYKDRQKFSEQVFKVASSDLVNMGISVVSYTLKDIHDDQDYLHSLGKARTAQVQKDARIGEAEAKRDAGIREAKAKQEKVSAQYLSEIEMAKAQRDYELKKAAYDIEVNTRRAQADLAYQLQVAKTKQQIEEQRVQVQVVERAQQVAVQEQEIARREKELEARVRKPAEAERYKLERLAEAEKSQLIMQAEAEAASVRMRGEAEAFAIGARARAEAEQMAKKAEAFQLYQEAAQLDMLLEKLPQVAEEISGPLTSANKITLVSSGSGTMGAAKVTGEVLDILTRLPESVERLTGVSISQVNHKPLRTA
UniProt Q9UK73, whole entry, looked up: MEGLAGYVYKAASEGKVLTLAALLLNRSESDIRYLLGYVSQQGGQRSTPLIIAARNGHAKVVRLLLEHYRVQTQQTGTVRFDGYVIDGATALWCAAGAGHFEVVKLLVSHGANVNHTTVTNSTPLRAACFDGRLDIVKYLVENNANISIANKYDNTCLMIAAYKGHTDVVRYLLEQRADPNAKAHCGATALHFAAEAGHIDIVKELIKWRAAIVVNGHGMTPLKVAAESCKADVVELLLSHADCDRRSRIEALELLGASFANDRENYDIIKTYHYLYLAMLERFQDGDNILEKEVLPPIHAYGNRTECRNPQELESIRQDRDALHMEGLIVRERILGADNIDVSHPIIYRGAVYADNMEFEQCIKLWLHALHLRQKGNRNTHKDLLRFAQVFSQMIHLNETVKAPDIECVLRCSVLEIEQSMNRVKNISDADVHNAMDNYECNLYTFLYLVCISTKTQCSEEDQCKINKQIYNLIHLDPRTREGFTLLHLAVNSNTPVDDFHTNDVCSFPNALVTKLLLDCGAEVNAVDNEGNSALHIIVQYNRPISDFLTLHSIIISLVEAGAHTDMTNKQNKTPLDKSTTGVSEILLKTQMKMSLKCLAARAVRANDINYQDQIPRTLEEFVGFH
UniProt Q9UK99: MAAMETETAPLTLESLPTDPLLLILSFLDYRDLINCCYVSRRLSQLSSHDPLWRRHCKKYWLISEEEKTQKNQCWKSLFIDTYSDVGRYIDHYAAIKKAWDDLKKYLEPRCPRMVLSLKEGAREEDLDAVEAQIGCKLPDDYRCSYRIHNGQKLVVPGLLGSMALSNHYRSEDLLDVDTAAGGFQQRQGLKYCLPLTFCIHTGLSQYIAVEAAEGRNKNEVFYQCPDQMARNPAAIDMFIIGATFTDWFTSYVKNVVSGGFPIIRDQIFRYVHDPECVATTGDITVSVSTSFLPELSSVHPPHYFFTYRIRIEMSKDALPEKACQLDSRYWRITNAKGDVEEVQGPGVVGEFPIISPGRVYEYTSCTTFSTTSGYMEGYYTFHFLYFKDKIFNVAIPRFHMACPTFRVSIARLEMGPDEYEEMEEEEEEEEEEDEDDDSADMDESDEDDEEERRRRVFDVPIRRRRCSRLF
UniProt Q9UBU6: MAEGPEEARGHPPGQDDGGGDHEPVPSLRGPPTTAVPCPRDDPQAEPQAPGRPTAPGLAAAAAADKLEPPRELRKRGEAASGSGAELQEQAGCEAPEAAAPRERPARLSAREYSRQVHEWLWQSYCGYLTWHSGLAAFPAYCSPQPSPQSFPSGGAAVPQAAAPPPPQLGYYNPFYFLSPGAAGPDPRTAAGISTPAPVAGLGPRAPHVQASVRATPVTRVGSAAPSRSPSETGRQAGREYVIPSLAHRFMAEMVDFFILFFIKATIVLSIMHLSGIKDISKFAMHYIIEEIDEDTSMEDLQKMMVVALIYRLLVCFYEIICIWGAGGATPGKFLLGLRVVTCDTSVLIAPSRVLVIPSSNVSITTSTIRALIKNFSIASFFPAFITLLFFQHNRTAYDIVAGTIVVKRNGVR
UniProt Q8N3X1: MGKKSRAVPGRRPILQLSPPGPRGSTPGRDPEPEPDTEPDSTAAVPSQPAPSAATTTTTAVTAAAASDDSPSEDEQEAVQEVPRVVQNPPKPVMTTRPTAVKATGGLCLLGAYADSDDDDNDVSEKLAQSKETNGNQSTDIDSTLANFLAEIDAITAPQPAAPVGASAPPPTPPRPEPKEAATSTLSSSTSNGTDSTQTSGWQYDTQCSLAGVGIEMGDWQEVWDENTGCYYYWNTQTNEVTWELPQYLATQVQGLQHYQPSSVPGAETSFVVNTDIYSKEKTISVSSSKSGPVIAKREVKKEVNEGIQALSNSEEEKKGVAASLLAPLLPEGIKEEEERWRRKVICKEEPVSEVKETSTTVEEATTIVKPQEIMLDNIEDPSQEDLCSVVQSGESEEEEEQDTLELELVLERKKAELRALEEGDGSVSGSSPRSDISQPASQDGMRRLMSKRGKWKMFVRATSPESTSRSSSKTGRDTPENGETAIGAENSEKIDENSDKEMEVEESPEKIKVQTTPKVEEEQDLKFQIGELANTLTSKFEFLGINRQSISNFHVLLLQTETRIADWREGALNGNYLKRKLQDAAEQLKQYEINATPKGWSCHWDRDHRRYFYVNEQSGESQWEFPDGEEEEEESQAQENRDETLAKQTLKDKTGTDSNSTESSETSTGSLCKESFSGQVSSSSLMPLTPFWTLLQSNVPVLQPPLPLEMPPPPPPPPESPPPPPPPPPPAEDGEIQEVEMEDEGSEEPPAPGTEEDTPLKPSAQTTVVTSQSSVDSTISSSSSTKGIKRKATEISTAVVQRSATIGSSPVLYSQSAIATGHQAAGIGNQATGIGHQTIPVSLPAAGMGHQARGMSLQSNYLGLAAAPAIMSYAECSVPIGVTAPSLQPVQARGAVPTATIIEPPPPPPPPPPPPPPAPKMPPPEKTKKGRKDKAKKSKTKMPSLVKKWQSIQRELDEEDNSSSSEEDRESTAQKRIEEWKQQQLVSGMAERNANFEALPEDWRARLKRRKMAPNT
UniProt Q13045: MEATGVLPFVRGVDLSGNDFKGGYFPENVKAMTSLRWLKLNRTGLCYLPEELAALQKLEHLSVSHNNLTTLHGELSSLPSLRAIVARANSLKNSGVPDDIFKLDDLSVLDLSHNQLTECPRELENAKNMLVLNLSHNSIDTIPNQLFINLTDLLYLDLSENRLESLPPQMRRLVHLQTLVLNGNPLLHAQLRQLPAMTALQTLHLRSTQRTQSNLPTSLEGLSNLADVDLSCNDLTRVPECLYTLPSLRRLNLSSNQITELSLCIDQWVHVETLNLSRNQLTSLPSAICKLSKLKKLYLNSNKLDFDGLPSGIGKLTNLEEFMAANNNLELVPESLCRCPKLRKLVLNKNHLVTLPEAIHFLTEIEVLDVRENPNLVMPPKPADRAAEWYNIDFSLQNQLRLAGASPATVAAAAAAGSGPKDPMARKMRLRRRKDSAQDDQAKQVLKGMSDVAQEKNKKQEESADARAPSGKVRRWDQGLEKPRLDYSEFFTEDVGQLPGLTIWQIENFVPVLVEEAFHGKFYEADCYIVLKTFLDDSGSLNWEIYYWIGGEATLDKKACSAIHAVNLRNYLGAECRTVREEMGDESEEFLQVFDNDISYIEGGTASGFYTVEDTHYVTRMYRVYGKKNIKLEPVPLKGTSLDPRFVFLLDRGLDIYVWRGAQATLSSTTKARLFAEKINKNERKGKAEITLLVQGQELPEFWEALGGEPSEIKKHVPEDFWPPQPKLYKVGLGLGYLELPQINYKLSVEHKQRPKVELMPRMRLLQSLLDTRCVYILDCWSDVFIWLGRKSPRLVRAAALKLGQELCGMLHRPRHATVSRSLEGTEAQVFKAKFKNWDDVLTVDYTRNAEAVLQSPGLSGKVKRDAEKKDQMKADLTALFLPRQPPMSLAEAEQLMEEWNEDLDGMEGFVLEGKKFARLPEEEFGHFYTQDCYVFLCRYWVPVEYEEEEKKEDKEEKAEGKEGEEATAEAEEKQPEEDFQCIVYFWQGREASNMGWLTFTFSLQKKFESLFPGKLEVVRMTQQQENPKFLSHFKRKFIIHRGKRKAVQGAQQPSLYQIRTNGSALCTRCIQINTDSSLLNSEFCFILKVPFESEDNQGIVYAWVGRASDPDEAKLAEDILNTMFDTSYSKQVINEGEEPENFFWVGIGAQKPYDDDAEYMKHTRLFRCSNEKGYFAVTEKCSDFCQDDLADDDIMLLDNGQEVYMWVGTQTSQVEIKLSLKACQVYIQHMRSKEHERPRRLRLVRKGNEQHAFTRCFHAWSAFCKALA
UniProt P39748, whole entry, looked up: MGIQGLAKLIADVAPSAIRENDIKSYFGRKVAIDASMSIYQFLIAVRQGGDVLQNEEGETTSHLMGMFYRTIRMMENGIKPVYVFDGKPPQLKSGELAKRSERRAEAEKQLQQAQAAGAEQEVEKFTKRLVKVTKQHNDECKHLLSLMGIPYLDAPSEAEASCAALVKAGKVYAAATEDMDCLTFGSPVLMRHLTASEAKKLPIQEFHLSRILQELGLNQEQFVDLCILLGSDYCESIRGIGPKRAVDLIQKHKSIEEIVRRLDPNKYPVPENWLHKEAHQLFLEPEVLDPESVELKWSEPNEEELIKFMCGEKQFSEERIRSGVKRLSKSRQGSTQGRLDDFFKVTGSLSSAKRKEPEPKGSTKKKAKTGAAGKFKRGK
UniProt Q9NXK8: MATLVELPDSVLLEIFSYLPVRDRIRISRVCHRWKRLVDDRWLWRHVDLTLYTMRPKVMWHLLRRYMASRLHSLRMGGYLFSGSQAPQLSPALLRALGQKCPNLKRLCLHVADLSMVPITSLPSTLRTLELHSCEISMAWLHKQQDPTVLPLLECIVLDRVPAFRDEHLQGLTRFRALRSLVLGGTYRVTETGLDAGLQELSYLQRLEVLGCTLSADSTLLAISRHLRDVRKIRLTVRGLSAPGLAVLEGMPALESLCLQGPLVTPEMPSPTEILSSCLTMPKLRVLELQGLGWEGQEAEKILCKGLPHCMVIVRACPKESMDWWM

Compound: C[C@H](Nc1ncnc2nc[nH]c12)c1cc2cccc(Cl)c2c(=O)n1-c1ccccc1 [duvelisib]
Assay: log2 fold change, soluble protein after heating vs DMSO (PISA); higher = thermal stabilisation; K562 lysate, 10 uM; active = over 0.2 and 3.5 SD of the protein, either way, in both replicates (recomputed)
Outline: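 Thermal stability, expressed as log-two fold change relative to solvent controls, is given from duplicates. Crude K562 extract in PBS pH 7.4 with 1 mM MgCl2, at 1 mg/mL protein, was treated with 10 μM compound for 30 min and heated in aliquots for 3 min across 48°C-58°C. After pooling, adjustment to 0.5% NP-40 at 4°C and centrifugation at 21,000xg for 90 min, supernatant protein was measured by TMTpro 16plex LC-MS/MS with channel sums equalised.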

log2 fold change, inactive:
FN3K (UniProt Q9H479) -0.006
FBXL8 (UniProt Q96CD0) -0.016
FARSA (UniProt Q9Y285) 0.056
FKBP2 (UniProt P26885) -0.03
FDX1 (UniProt P10109) -0.045
FGFR1OP2 (UniProt Q9NVK5) -0.003
FKBP7 (UniProt Q9Y680) 0.018
FGD6 (UniProt Q6ZV73) 0.044
FECH isoform 2 (UniProt P22830) -0.022
FBXW11 (UniProt Q9UKB1) 0.163
FANCI (UniProt Q9NVI1) 0.001
FBXO7 (UniProt Q9Y3I1) -0.041
FHL3 (UniProt Q13643) 0.017
FDX2 (UniProt Q6P4F2) 0.188
FNTB (UniProt P49356) 0.143
FBXO5 (UniProt Q9UKT4) -0.025
FMNL1 isoform 3 (UniProt O95466) 0
FLOT1 (UniProt O75955) 0.018
FGGY isoform 3 (UniProt Q96C11) -0.035
FEM1B (UniProt Q9UK73) 0.003
FNTA (UniProt P49354) 0.015
FBXO3 (UniProt Q9UK99) 0.04
FAM8A1 (UniProt Q9UBU6) 0.05
FDFT1 (UniProt P37268) 0.19
FMR1 (UniProt Q06787) 0.06
FNBP4 isoform 2 (UniProt Q8N3X1) 0.029
FLII (UniProt Q13045) -0.017
FEN1 (UniProt P39748) 0.02
FCHO1 (UniProt O14526) -0.025
FBXL12 (UniProt Q9NXK8) 0.026
FBXO2 (UniProt Q9UK22) 0.098
FLYWCH2 (UniProt Q96CP2) 0.014
FNIP1 isoform 3 (UniProt Q8TF40) -0.018

Reprinted at random: 2 records from the list, in no set order.
log2 fold change, inactive:
FBXW11 (UniProt Q9UKB1) 0.163
FLYWCH2 (UniProt Q96CP2) 0.014
